The other results are listed elsewhere or left out.

Sequences of proteins named here, by UniProt entry; tags and fusion partners are left off.
UniProt Q0JBA9, entry or part of it: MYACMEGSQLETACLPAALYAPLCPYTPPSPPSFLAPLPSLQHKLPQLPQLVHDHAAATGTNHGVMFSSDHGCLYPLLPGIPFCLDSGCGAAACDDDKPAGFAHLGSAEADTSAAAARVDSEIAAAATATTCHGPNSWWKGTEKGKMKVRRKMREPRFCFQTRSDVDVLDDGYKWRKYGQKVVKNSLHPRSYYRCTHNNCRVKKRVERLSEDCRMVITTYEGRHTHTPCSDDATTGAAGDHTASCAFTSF

The test concerns the target OsWRKY34 (Oryza sativa, UniProt Q0JBA9 1-250). In words: protein-binding microarray (RPBM); PBS, 2% BSA, 51.3 ng/ul salmon testes DNA, 50 uM zinc acetate, 200 nM TF, 25 C, 1 h; high values mean tight binding. The conditions noted are these: protein: recombinant; tags: N-terminal polyhistidine and DsRed monomer fusion (pET32a); label: CyDye5-dUTP incorporated in the synthesized complementary strand; 3' TTTTT single-stranded linker to array surface; dsDNA, one strand shown. A digest of the protocol:
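Using Ni–NTA, transcription factors fused N-terminally to polyhistidine and DsRed were purified after expression in E. coli BL21-CodonPlus. These were incubated at 200 nM with a blocked, double-stranded custom Agilent array for 1 h at 25 °C in a buffer containing 50 µM zinc acetate, and the array was washed. The binding signal is per-feature fluorescence intensity (arbitrary units) on an Axon 4000B scanner.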
Consider “CATACGGAGATATCTCCTTTCTTTCTTTGACTGTTGCCTTCGGAGTCACCTAGTGCAG”, for which the binding signal was 10400 fluorescence intensity (a.u.). As for “TGTTTGACGCCGTTGACTTTTTAACACATGTTTGACCGTTCGGAGTCACCTAGTGCAG”, the figure is 41700 fluorescence intensity (a.u.); as for “GCATCCTGCGCCGTCGCCTCGCCTGTTCTTCAATTTGCCGCGGAGTCACCTAGTGCAG”, 9550 fluorescence intensity (a.u.). Take “ACCGGCACCACCAACAACCACACACCTCCTCCGCTAGCTGCGGAGTCACCTAGTGCAG”: the binding signal was 10800 fluorescence intensity (a.u.).

As for “GTTCCTGGTTTTTGTTATGATGGTGTTGTTTCTTTTGGGGCGGAGTCACCTAGTGCAG”, the binding signal was 9520 fluorescence intensity (a.u.). For “TCGTCACTTCGTGTGGCCGCCGCCCTCCGCCTCGCCGCTCCGGAGTCACCTAGTGCAG”, the binding signal was 10200 fluorescence intensity (a.u.).

On to “TATATCTTGTGTTCATATTCGTAGCCATAAGTCTTTTTCTCGGAGTCACCTAGTGCAG”, for which the binding signal was 8940 fluorescence intensity (a.u.). Regarding “ACTGCCGGTTCAACTGCTCCACGGCTCCACTCCACGCATCCGGAGTCACCTAGTGCAG”, the binding signal was 9340 fluorescence intensity (a.u.).

“AAGAAGAAAACCGTCCAACCGCTCCATGTTCGTTTGTGTCCGGAGTCACCTAGTGCAG”: the binding signal is 9560 fluorescence intensity (a.u.). Consider “ACACCAAGCCACTCACCACACCTCGCAATTTACATGGCTCCGGAGTCACCTAGTGCAG”, for which the binding signal is 8600 fluorescence intensity (a.u.). Regarding “CGGCGAGCCAGCTGCTACAGTAGCCTCCGCCGCCGGCGGCCGGAGTCACCTAGTGCAG”, the binding signal was 9670 fluorescence intensity (a.u.). With “TAGTGTCAAACTTCTCTTGTATGGCTTTGTTTATAATTCCCGGAGTCACCTAGTGCAG”, the binding signal is 8430 fluorescence intensity (a.u.). Consider “CCAGGAGCGGGGAGAAAGTAAGGGGAGGGGAGCGCCGCCTCGGAGTCACCTAGTGCAG”, for which the binding signal was 8980 fluorescence intensity (a.u.).

Regarding “TGGTTGAGGCTGTTTTCCGATCATTTCCGACCGTTTTCATCGGAGTCACCTAGTGCAG”, the binding signal is 8230 fluorescence intensity (a.u.). On to “ATACATTTTAAGACAAATCTATGCATACTATTTCTTTTTCCGGAGTCACCTAGTGCAG”, for which the binding signal was 8420 fluorescence intensity (a.u.).

With “ACTATTATACTTGCTCTCAGCTAATACCAATCAAATTAAGCGGAGTCACCTAGTGCAG”, the binding signal is 8800 fluorescence intensity (a.u.). Consider “GTTTCATGTGCCGATGTCATTTGAGAGCTACCGTGTCTTACGGAGTCACCTAGTGCAG”, for which the binding signal is 9270 fluorescence intensity (a.u.). Then “CGCGATGTGATGTCTTTCTTCTCACTCCACGCACCATTTTCGGAGTCACCTAGTGCAG”, with 9350 fluorescence intensity (a.u.).

Consider “TGCTTTTCATTTTGCGTGAAGTATTGGACTCTTTAGATCACGGAGTCACCTAGTGCAG”, for which the binding signal was 8500 fluorescence intensity (a.u.).

For the sequence “CATCCACCTCTCCTGGCTCTCCAGATATGTCGATGAACATCGGAGTCACCTAGTGCAG”, the binding signal was 10300 fluorescence intensity (a.u.).

As to “GAGTTGATTTGCGTTGTCTCTCCGTCTCTTTCTTATTAATCGGAGTCACCTAGTGCAG”, the binding signal is 14200 fluorescence intensity (a.u.). For the sequence “ACAAGCACATTGACTTTCGAATTGTTGTCCTCGGATGCTACGGAGTCACCTAGTGCAG”, the binding signal is 10000 fluorescence intensity (a.u.). In the case of “GTGCACGTCTGACTTCTTGCACTCCCTATACGTCTTGACCCGGAGTCACCTAGTGCAG”, the binding signal was 8360 fluorescence intensity (a.u.). For “TGGTGTGGCGTATGTGATAGTTACTTACTTAGATGGTGTGCGGAGTCACCTAGTGCAG”, the binding signal is 9360 fluorescence intensity (a.u.). For the sequence “CCTTCTATCTATCGATCCAATCCAACGCTGCAGAGACCCTCGGAGTCACCTAGTGCAG”, the binding signal was 9180 fluorescence intensity (a.u.). As for “AATGGGATATGGGAGGTGGGATTGGGAAAGGGGAATAGATCGGAGTCACCTAGTGCAG”, the binding signal was 12000 fluorescence intensity (a.u.).

Take “AACTCAGTTCTATCCATCACGCACTTTGGAGTTTGTTCTTCGGAGTCACCTAGTGCAG”: the binding signal is 8990 fluorescence intensity (a.u.). Then “TGTAGCTTACTGCTTTGGTTTGGGCTGGTTGTGGATTGGACGGAGTCACCTAGTGCAG”, with 11900 fluorescence intensity (a.u.). For the sequence “CCTCCGTTTTCTCAATTCTACGTTTCAAAACTCTCTTATGCGGAGTCACCTAGTGCAG”, the binding signal is 9080 fluorescence intensity (a.u.). As for “GGGAGTATTATTGTATCATCAGTTTTTTCGCTATGGCATACGGAGTCACCTAGTGCAG”, the figure is 11800 fluorescence intensity (a.u.); as for “AGCACGCGAAAGCGATTATCTGTTCTTGTTTGGAGGAGTTCGGAGTCACCTAGTGCAG”, 8230 fluorescence intensity (a.u.); as for “CACTTCACCTTTTTTGCAAGATGCTACTACTAATTACTAACGGAGTCACCTAGTGCAG”, 10400 fluorescence intensity (a.u.). In the case of “ACAAATTCCTGACTTCACGGTTTTCTATTTGGTTGTAATACGGAGTCACCTAGTGCAG”, the binding signal was 9590 fluorescence intensity (a.u.). Take “TTCCTCGCCCACATCCTCATACACCCTTTTCGGTTACTGACGGAGTCACCTAGTGCAG”: the binding signal was 8120 fluorescence intensity (a.u.). Regarding “TGTCCGGTATTTTAAGTTTAGGGTGAGTAATATCTGGTTTCGGAGTCACCTAGTGCAG”, the binding signal was 10600 fluorescence intensity (a.u.). Regarding “TTGGTGTCTTTGTGTCGTCTTTTCATCTACCTTTGTTTTACGGAGTCACCTAGTGCAG”, the binding signal is 11500 fluorescence intensity (a.u.). As for “CTGGGCGGATTGGGCGTGGGGTCGAGGCGGAGGTGGCCGCCGGAGTCACCTAGTGCAG”, the binding signal was 11500 fluorescence intensity (a.u.).

In the case of “GGGCGTACCATTTCGGAGGGGAGGCGGCAAGTGAACAAACCGGAGTCACCTAGTGCAG”, the binding signal was 11700 fluorescence intensity (a.u.). As to “GGTTTCCGTGTCCAACGTTTGACTGTCCGTCTTATTTGAACGGAGTCACCTAGTGCAG”, the binding signal was 8570 fluorescence intensity (a.u.). As for “GTGGTGGAGGAGGTGGGAGAGGAAGAGATAAGGCTGTGGGCGGAGTCACCTAGTGCAG”, the binding signal is 8550 fluorescence intensity (a.u.). For the sequence “GTTTTCATCCCTCTAGACTTCTATCTTGTTTTTATTTCCACGGAGTCACCTAGTGCAG”, the binding signal was 9110 fluorescence intensity (a.u.). With “GGCACGCTACTACTCCTACTATATGATAAAAAAACACTACCGGAGTCACCTAGTGCAG”, the binding signal was 8150 fluorescence intensity (a.u.).

The values above are taken from article PMC7819943, “Rice protein-binding microarrays: a tool to detect cis-acting elements near promoter regions in rice”.
